# Values from PubChem BioAssay AID1224830 (NIAID, 2016)
# Purpose: 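Host factors that control LPS-induced TNF expression in human macrophages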 (primary screen)
# Cells: human THP-1 monocytic leukaemia cells, TNF dual-luciferase reporter clone, PMA-differentiated to macrophage-like cells
# Reagent: siRNA pool against human genes, 50 nM
# Duration: LPS for 4 h, given about 3 days after siRNA transfection
# Challenge: bacterial LPS (TLR4 ligand), 10 ng/ml
# Read-out: 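Ratio of firefly to renilla light, scaled to the plate median and expressed as a robust z-score per replicate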
# Direction: TNF reporter robust z-score: higher = stronger TNF reporter response to LPS
# Rule for the call: 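Each well counts as active if its z-score is over 2.8 or under -1.5; controls are left without a call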
# Shown is one part, drawn at random, of about 18,000 reagents tested. About 2,900 of all reagents (16%) were called active. 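Calls are made per well; low scores hint the gene aids the LPS response, high scores that it dampens it.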 Entries without a mark were called inactive. Repeated entries: four replicate wells of each siRNA pool.
The opening 15 entries, to show the layout:
gene,TNF reporter robust z-score
CCNJL (GeneID 79616),-0.7
CCNJL (GeneID 79616),-0.45
CCNJL (GeneID 79616),-0.71
DCAF6 (GeneID 55827),1.22
DCAF6 (GeneID 55827),-0.47
DCAF6 (GeneID 55827),-0.34
DCAF6 (GeneID 55827),0.87
LRRN3 (GeneID 54674),1.47
LRRN3 (GeneID 54674),0.32
LRRN3 (GeneID 54674),1.19
LRRN3 (GeneID 54674),0.97
FXR1 (GeneID 8087),-0.84
FXR1 (GeneID 8087),-0.78
FXR1 (GeneID 8087),0.29
FXR1 (GeneID 8087),-0.24

Main list, from the first entry:
gene,TNF reporter robust z-score
CCNJL (GeneID 79616),-0.7
CCNJL (GeneID 79616),-0.45
CCNJL (GeneID 79616),-0.71
DCAF6 (GeneID 55827),1.22
DCAF6 (GeneID 55827),-0.47
DCAF6 (GeneID 55827),-0.34
DCAF6 (GeneID 55827),0.87
LRRN3 (GeneID 54674),1.47
LRRN3 (GeneID 54674),0.32
LRRN3 (GeneID 54674),1.19
LRRN3 (GeneID 54674),0.97
FXR1 (GeneID 8087),-0.84
FXR1 (GeneID 8087),-0.78
FXR1 (GeneID 8087),0.29
FXR1 (GeneID 8087),-0.24
SART3 (GeneID 9733),1.15
SART3 (GeneID 9733),4.84 (active)
SART3 (GeneID 9733),1.04
SART3 (GeneID 9733),-0.13
ZNF830 (GeneID 91603),0.67
ZNF830 (GeneID 91603),1.51
ZNF830 (GeneID 91603),1.43
ZNF830 (GeneID 91603),-0.19
MKNK1 (GeneID 8569),0.3
MKNK1 (GeneID 8569),0.7
MKNK1 (GeneID 8569),0.62
MKNK1 (GeneID 8569),0.61
SCUBE2 (GeneID 57758),-0.39
SCUBE2 (GeneID 57758),-1.23
SCUBE2 (GeneID 57758),-0.16
SCUBE2 (GeneID 57758),0.23
KAT5 (GeneID 10524),2.89 (active)
KAT5 (GeneID 10524),1.51
KAT5 (GeneID 10524),1.87
KAT5 (GeneID 10524),3.67 (active)
RHNO1 (GeneID 83695),2.68
RHNO1 (GeneID 83695),0.93
RHNO1 (GeneID 83695),-0.52
RHNO1 (GeneID 83695),0.65
CATSPER4 (GeneID 378807),0.91
CATSPER4 (GeneID 378807),2.85 (active)
CATSPER4 (GeneID 378807),0.09
CATSPER4 (GeneID 378807),0.07
TEPSIN (GeneID 146705),0.11
TEPSIN (GeneID 146705),-0.14
TEPSIN (GeneID 146705),0.3
TEPSIN (GeneID 146705),-0.39
OR5T1 (GeneID 390155),2.11
OR5T1 (GeneID 390155),4.41 (active)
OR5T1 (GeneID 390155),1.22
OR5T1 (GeneID 390155),-0.02
THBS3 (GeneID 7059),0.06
THBS3 (GeneID 7059),0.59
THBS3 (GeneID 7059),-0.81
THBS3 (GeneID 7059),-0.76
ARC (GeneID 23237),-0.52
ARC (GeneID 23237),-0.32
ARC (GeneID 23237),-0.99
ARC (GeneID 23237),-0.54
B3GNT7 (GeneID 93010),0.52
B3GNT7 (GeneID 93010),-0.12
B3GNT7 (GeneID 93010),-0.59
B3GNT7 (GeneID 93010),-0.35
MCHR1 (GeneID 2847),0.39
MCHR1 (GeneID 2847),-0.66
MCHR1 (GeneID 2847),-0.3
MCHR1 (GeneID 2847),-0.25
JPH2 (GeneID 57158),-0.01
JPH2 (GeneID 57158),0.86
JPH2 (GeneID 57158),-0.97
JPH2 (GeneID 57158),0.56
AOAH (GeneID 313),-2.48 (active)
AOAH (GeneID 313),-0.05
AOAH (GeneID 313),-0.91
AOAH (GeneID 313),-0.16
ABL1 (GeneID 25),1.81
ABL1 (GeneID 25),2.19
ABL1 (GeneID 25),1.58
ABL1 (GeneID 25),2.65
APOBEC1 (GeneID 339),0.34
APOBEC1 (GeneID 339),-0.6
APOBEC1 (GeneID 339),-0.8
APOBEC1 (GeneID 339),0.38
KCNQ4 (GeneID 9132),1.48
KCNQ4 (GeneID 9132),0.3
KCNQ4 (GeneID 9132),0.9
KCNQ4 (GeneID 9132),-0.19
ALDH5A1 (GeneID 7915),-0.23
ALDH5A1 (GeneID 7915),0.11
ALDH5A1 (GeneID 7915),0.58
ALDH5A1 (GeneID 7915),0.37
ITPRIPL1 (GeneID 150771),0.23
ITPRIPL1 (GeneID 150771),-0.51
ITPRIPL1 (GeneID 150771),-0.85
ITPRIPL1 (GeneID 150771),2.44
TASL (GeneID 80231),0.56
TASL (GeneID 80231),0.16
TASL (GeneID 80231),-0.36
TASL (GeneID 80231),-0.32
LHB (GeneID 3972),0.33
LHB (GeneID 3972),-0.13
LHB (GeneID 3972),-1.02
LHB (GeneID 3972),-0.2
DEFB106B (GeneID 503841),0.28
DEFB106B (GeneID 503841),0.08
DEFB106B (GeneID 503841),0.7
DEFB106B (GeneID 503841),0.4
PRPF38B (GeneID 55119),-1.4
PRPF38B (GeneID 55119),-0.66
PRPF38B (GeneID 55119),-0.78
PRPF38B (GeneID 55119),0.24
SREK1 (GeneID 140890),2.05
SREK1 (GeneID 140890),1.21
SREK1 (GeneID 140890),-0.87
RND3 (GeneID 390),-1.22
RND3 (GeneID 390),-1.26
RND3 (GeneID 390),-1.21
RND3 (GeneID 390),-0.86
CATSPERB (GeneID 79820),-1.61 (active)
CATSPERB (GeneID 79820),-1.38
CATSPERB (GeneID 79820),0.38
CATSPERB (GeneID 79820),-1.02
DPEP1 (GeneID 1800),-0.39
DPEP1 (GeneID 1800),0.47
DPEP1 (GeneID 1800),-0.41
DPEP1 (GeneID 1800),-0.13
PSTPIP2 (GeneID 9050),1.56
PSTPIP2 (GeneID 9050),1.04
PSTPIP2 (GeneID 9050),1.73
PSTPIP2 (GeneID 9050),2.27
ZNF791 (GeneID 163049),-0.19
ZNF791 (GeneID 163049),0.05
ZNF791 (GeneID 163049),1.31
ZNF791 (GeneID 163049),0.43
SAP30BP (GeneID 29115),-1.47
SAP30BP (GeneID 29115),0.25
SAP30BP (GeneID 29115),-0.31
SAP30BP (GeneID 29115),-1.24
IFNGR1 (GeneID 3459),-0.64
IFNGR1 (GeneID 3459),-0.17
IFNGR1 (GeneID 3459),0.66
IFNGR1 (GeneID 3459),1.89
